{"source": "patent US10526389B2", "about": "“Peptides and combinations of peptides for use in immunotherapy against lung cancer, including NSCLC and other cancers” (Immatics Biotechnologies GmbH, priority 2015, dated 2020)", "tested_on": "HLA-A*02-positive lung cancer (NSCLC) samples", "experiment": "Relative LC-MS quantitation of HLA-A*02 peptide presentation on tumors vs normal tissues", "parameters": "species or system human; key to Peptide Presentation (presentation score): very highly over-presented on tumors compared to a panel of normal tissues (+++); highly over-presented on tumors compared to a panel of normal (healthy) tissues (++); over-presented on tumors compared to a panel of normal tissues (+)", "details": "HLA-A*02 peptides; for Additional Entities (additional tumor types showing over-presentation): amendment of Table 9, >5% of measured tumor samples or ratio of geometric means tumor vs normal >3; for Other relevant organs/diseases (additional tumour types on which the peptide was found): over-presented on >5% of measured tumour samples, or presented on >5% with ratio of geometric means tumour vs normal >3; for Peptide Presentation (presentation score): tumors compared to a panel of normal tissues"}
{"substance": "1 (KLLPYIVGV; listed as Homo sapiens) [compound 1]", "values": [{"measurement": "Additional Entities (additional tumor types showing over-presentation)", "result": "SCLC, CRC, Melanoma, Esophageal Cancer, Gallbladder Cancer, Bile Duct Cancer"}, {"measurement": "Other relevant organs/diseases (additional tumour types on which the peptide was found)", "result": "Pancreas, Breast"}]}
{"substance": "ILQDRLNQV (listed as Homo sapiens) [SEQ ID No. 152]", "values": [{"measurement": "Peptide Presentation (presentation score)", "result": "+"}]}
{"substance": "20 (LMTKEISSV; listed as Homo sapiens) [compound 20]", "values": [{"measurement": "Additional Entities (additional tumor types showing over-presentation)", "result": "OC, Esophageal Cancer, Urinary bladder cancer, Gallbladder Cancer, Bile Duct Cancer"}, {"measurement": "Other relevant organs/diseases (additional tumour types on which the peptide was found)", "result": "Brain, Liver, Melanoma"}]}
{"substance": "138 (ALNEEAGRLLL; listed as Homo sapiens) [compound 138]", "values": [{"measurement": "Other relevant organs/diseases (additional tumour types on which the peptide was found)", "result": "Kidney, Brain, Stomach, Colon, Rectum, Liver, Pancreas, MCC, Melanoma, Ovary, Esophagus"}]}
{"substance": "ALTSTLISV (listed as Homo sapiens) [SEQ ID No. 5]", "values": [{"measurement": "Peptide Presentation (presentation score)", "result": "++"}]}
{"substance": "94 (ILVDWLVQV; listed as Homo sapiens) [compound 94]", "values": [{"measurement": "Additional Entities (additional tumor types showing over-presentation)", "result": "SCLC, BRCA, Esophageal Cancer, Urinary bladder cancer, Uterine Cancer, Gallbladder Cancer, Bile Duct Cancer, AML, NHL"}, {"measurement": "Other relevant organs/diseases (additional tumour types on which the peptide was found)", "result": "Kidney, Brain, Stomach, Colon, Rectum, Liver, Melanoma, Ovary"}]}
{"substance": "112 (VLAPLFVYL; listed as Homo sapiens) [compound 112]", "values": [{"measurement": "Other relevant organs/diseases (additional tumour types on which the peptide was found)", "result": "Kidney, Pancreas, Breast, Melanoma"}]}
{"substance": "KIF26B-001 (TVAEVIQSV; listed as Homo sapiens)", "values": [{"measurement": "Peptide Presentation (presentation score)", "result": "+"}]}
{"substance": "3 (FLYDVVKSL; listed as Homo sapiens) [compound 3]", "values": [{"measurement": "Additional Entities (additional tumor types showing over-presentation)", "result": "SCLC, CRC, Gallbladder Cancer, Bile Duct Cancer"}, {"measurement": "Other relevant organs/diseases (additional tumour types on which the peptide was found)", "result": "Pancreas, Breast"}]}
{"substance": "126 (KLLTEVHAA; listed as Homo sapiens) [compound 126]", "values": [{"measurement": "Other relevant organs/diseases (additional tumour types on which the peptide was found)", "result": "Kidney, Stomach, Colon, Rectum, Liver, Pancreas, Breast, Ovary"}]}
{"substance": "99 (ALFQRPPLI; listed as Homo sapiens) [compound 99]", "values": [{"measurement": "Additional Entities (additional tumor types showing over-presentation)", "result": "SCLC, CLL, Esophageal Cancer, Urinary bladder cancer, Gallbladder Cancer, Bile Duct Cancer, NHL"}, {"measurement": "Other relevant organs/diseases (additional tumour types on which the peptide was found)", "result": "Colon, Rectum, Liver, Ovary"}]}
{"substance": "22 (NLINQEIML; listed as Homo sapiens) [compound 22]", "values": [{"measurement": "Additional Entities (additional tumor types showing over-presentation)", "result": "BRCA, Melanoma, Urinary bladder cancer"}]}
{"substance": "RCN1-001 (FQYDHEAFL; listed as Homo sapiens)", "values": [{"measurement": "Peptide Presentation (presentation score)", "result": "++"}]}
{"substance": "132 (ALFVRLLALA; listed as Homo sapiens) [compound 132]", "values": [{"measurement": "Other relevant organs/diseases (additional tumour types on which the peptide was found)", "result": "Kidney, Brain, Stomach, Colon, Rectum, Liver, Pancreas, Melanoma, Ovary, Esophagus"}]}
{"substance": "7 (NLLQVLEKV; listed as Homo sapiens) [compound 7]", "values": [{"measurement": "Additional Entities (additional tumor types showing over-presentation)", "result": "SCLC, OC, Urinary bladder cancer, Uterine Cancer, Gallbladder Cancer, Bile Duct Cancer"}, {"measurement": "Other relevant organs/diseases (additional tumour types on which the peptide was found)", "result": "Kidney, Colon, Rectum, Liver, Breast"}]}
{"substance": "DIO2-001 (ALYDSVILL; listed as Homo sapiens)", "values": [{"measurement": "Peptide Presentation (presentation score)", "result": "++"}]}
{"substance": "125 (RLDDLKMTV; listed as Homo sapiens) [compound 125]", "values": [{"measurement": "Other relevant organs/diseases (additional tumour types on which the peptide was found)", "result": "Colon, Rectum, Pancreas, Ovary, Esophagus"}]}
{"substance": "128 (TLSSIKVEV; listed as Homo sapiens) [compound 128]", "values": [{"measurement": "Other relevant organs/diseases (additional tumour types on which the peptide was found)", "result": "Kidney, Stomach, Colon, Rectum, Pancreas, Prostate, Breast, Melanoma, Ovary"}]}
{"substance": "MXRA5-002 (GLTDNIHLV; listed as Homo sapiens)", "values": [{"measurement": "Peptide Presentation (presentation score)", "result": "++"}]}
{"substance": "122 (KLSWDLIYL; listed as Homo sapiens) [compound 122]", "values": [{"measurement": "Other relevant organs/diseases (additional tumour types on which the peptide was found)", "result": "Kidney, Colon, Rectum"}]}
{"substance": "103 (KLLSDPNYGV; listed as Homo sapiens) [compound 103]", "values": [{"measurement": "Additional Entities (additional tumor types showing over-presentation)", "result": "BRCA, Melanoma, Urinary bladder cancer, Gallbladder Cancer, Bile Duct Cancer"}, {"measurement": "Other relevant organs/diseases (additional tumour types on which the peptide was found)", "result": "Brain, Pancreas"}]}
